# Measurements: the supplement of paper PMC3334620
# The full ranking holds about 33,000 sequences; the median of “E-score (-0.5 to 0.5)” is about -0.0014, and the highest 2% start at about 0.25. This is one part of the list.
# Molecular target: T1, Cad1 (UniProt P24813)
# T1 sequence: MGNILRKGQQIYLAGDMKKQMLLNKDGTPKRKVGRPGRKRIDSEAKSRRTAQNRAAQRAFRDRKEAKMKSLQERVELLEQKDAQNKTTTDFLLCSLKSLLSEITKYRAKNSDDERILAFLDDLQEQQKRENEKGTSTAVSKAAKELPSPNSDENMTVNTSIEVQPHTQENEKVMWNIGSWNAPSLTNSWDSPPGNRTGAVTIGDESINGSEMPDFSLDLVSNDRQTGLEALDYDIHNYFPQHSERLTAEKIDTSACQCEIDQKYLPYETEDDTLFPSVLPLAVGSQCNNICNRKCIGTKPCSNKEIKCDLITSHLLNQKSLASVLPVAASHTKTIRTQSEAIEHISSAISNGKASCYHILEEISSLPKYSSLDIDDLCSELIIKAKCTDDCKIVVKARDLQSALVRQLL
# Test: PBM E-score (8-mer binding enrichment) (E-score (-0.5 to 0.5)); higher = stronger / more preferred TF binding
# Settings: protein concentration: 100 nM; construct: GST-full length
# How it was run: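 GST-tagged yeast TFs (full-length or DNA-binding domain) were made by PURExpress in vitro transcription/translation and applied at about 100-200 nM to universal all-10-mer Agilent arrays. The arrays were made double-stranded by primer extension, on fresh or once-stripped slides. Bound protein was detected with fluorescent anti-GST, and scans were normalised with masliner. Each ungapped eight-base word, pooled with its reverse complement, received an E-score (modified Wilcoxon-Mann-Whitney statistic) from the Universal PBM Analysis Suite.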
row,Sequence,PBM E-score
1,ACGACGTA,0.0903
2,CTAAAGCC,-0.214
3,ATAAGTTG,0.0577
4,ACGATGCC,-0.129
5,ATCAACAA,0.208
6,GTACGTGA,0.0217
7,AGGAAGTG,0.0356
8,CCGACACC,-0.0919
9,ATGAAATG,-0.0426
10,GGCTGAAC,-0.0285
11,GCGTCTTA,-0.0584
12,AGGACGAG,-0.175
13,ACTCATAT,0.00371
14,AAAGTGGA,-0.101
15,CGCGCTTA,0.262
16,CATTTACA,0.0347
17,CTAGTTTA,0.0779
18,AATTGTGT,-0.0588
19,GAGAGGCC,-0.198
20,GGTTGATA,0.144
21,ACCCTCTG,-0.231
22,CTTTGCGA,-0.0508
23,AAGGCCTA,-0.0263
24,ACTTGACG,-0.0557
25,GCATGTTA,0.138

# Pulled one by one from the list above (six):
row,Sequence,PBM E-score
14,AAAGTGGA,-0.101
18,AATTGTGT,-0.0588
20,GGTTGATA,0.144
24,ACTTGACG,-0.0557
21,ACCCTCTG,-0.231
4,ACGATGCC,-0.129

# (list continues)

row,Sequence,PBM E-score
1,GAAAGGTC,-0.183
2,CGTGTTAG,0.168
3,AGGCCCCA,-0.194
4,CCAACCGA,0.113
5,CTAACGAG,0.0159
6,CCTGAACG,-0.0444
7,GATGCAGA,0.146
8,CGAGCGCC,0.0144
9,CCGGTTCG,-0.0989
10,CGAGGACC,-0.00988
11,AGCTGAGG,-0.0903
12,ACACACAA,0.103
13,ACAAAGGT,0.0912
14,ACAAACGT,0.0361
15,ACCCCTAA,-0.137
16,CGTCTGGA,-0.205
17,ACGAGCGT,0.0203
18,AGATGGGG,-0.216
19,AACTTAGA,0.0275
20,AGCCATGC,0.0201
21,AGCTTTAT,-0.0448
22,GACATTGA,0.0902
23,AAATAGCA,0.036
24,CTCGCGGA,-0.155
25,CCATCCAG,-0.0345

row,Sequence,PBM E-score
1,ATTTCCAA,-0.03
2,GGATCCTA,-0.139
3,ATAGTGCA,0.192
4,ACTGCTAA,-0.114
5,AGCTCACA,-0.0541
6,CACTAGAC,-0.0989
7,GAGAACAA,0.148
8,ACTGACGC,-0.17
9,ATTCCACA,0.158
10,AAAGTCTA,-0.0301
11,CCCATCAA,0.0315
12,TGCTGCCA,-0.0292
13,CACCTTCC,-0.0223
14,GCCCCAGC,-0.0912
15,AAGTTCCC,-0.103
16,GTATAGGA,-0.174
17,GCGAAGGA,-0.182
18,AGGACTTG,-0.0585
19,CACTGCAA,0.0892
20,CCATAAGG,-0.231
21,TAAGGTCA,-0.077
22,AATCGGCG,-0.0003
23,ACGTCGCT,-0.117
24,GGTTCCAC,-0.0608
25,CGCCCGGA,0.0107

row,Sequence,PBM E-score
1,CTAGGTCA,-0.062
2,ATCGCTGG,-0.0128
3,ACGGCCCA,-0.228
4,CAGTCTAG,-0.112
5,AGTTTCCG,0.105
6,ATTGGGCA,-0.0742
7,GTTCAACA,0.156
8,AAACACCA,-0.00879
9,ACGTAGAA,-0.0137
10,ATCATCTC,-0.015
11,TGAATCAA,0.15
12,GTCCGTTA,0.199
13,ACCTTGTG,-0.213
14,ATAACAAA,0.312
15,ACAACTTA,0.0711
16,AGACAGGG,-0.229
17,GAAGGGCA,-0.122
18,CAGTCACC,-0.115
19,AAAATACA,0.0431
20,CGAATAGC,0.0486
21,ACGGGTCT,-0.252
22,AGGATTTC,0.101
23,ACTGCGCC,-0.176
24,ATGGAACC,-0.0448
25,AAGTAGCA,0.0365

row,Sequence,PBM E-score
1,CCTGTCAG,0.0622
2,CTATAACC,-0.04
3,CCATGCGG,-0.216
4,AGTTATTA,0.127
5,AAATTAAG,0.0523
6,CAGTGCTA,0.0113
7,CTTCCTGC,-0.219
8,ACATCGGA,0.0266
9,GTCATGCA,0.0469
10,CCCCCACG,-0.358
11,ATCTCTAC,0.0955
12,CACTGCCG,-0.0717
13,GACTTTAA,-0.0306
14,AGCCTGTG,-0.223
15,TGGCTGAA,-0.0767
16,AGGCCGAG,0.0768
17,CAGATCGA,0.125
18,ATGTCGGG,-0.0614
19,AATCACGT,0.184
20,CGCTAGCA,-0.0293
21,AACACTAA,0.12
22,AACAACTG,-0.0106
23,GGAAATGA,0.121
24,GATAAGGA,0.122
25,CCATCTAA,-0.0492

row,Sequence,PBM E-score
1,GGAATCAC,0.109
2,AGAGCACG,-0.134
3,GCACGAAC,0.135
4,CGCGTTAC,0.139
5,GACCTAGA,-0.106
6,CATAACGG,-0.00107
7,GTTAAAAC,-0.00321
8,TTCTAAAA,0.0693
9,GCGTGCAC,0.0421
10,TACTCTGA,-0.1
11,ATAATGCC,-0.00833
12,CATTTCCC,0.13
13,CGTCCTAA,-0.0443
14,GCTTTCCA,-0.00472
15,GGTTTTCA,0.197
16,ATGTCTAC,-0.0585
17,AAAAAACT,-0.0771
18,GATACATC,0.131
19,ATGTTGGA,0.197
20,CCTACTCG,-0.0435
21,CATAAACC,-0.0325
22,AGGTATGG,-0.152
23,AAGATGCC,-0.0381
24,CTCCAAAG,-0.193
25,AGGGGAAC,-0.229

row,Sequence,PBM E-score
1,ACTTTAGC,-0.184
2,CCTGAAAC,0.0798
3,CACTGATC,-0.0338
4,CGCCCTTA,0.0304
5,CTTTACCC,-0.0714
6,CGGCATGA,0.231
7,AGGGTGAA,-0.112
8,CATATTCA,0.108
9,GGAGACCA,-0.162
10,CTGCGTGC,0.0457
11,CCCTGCTC,-0.169
12,CCGGACGG,-0.0683
13,CTCTAGGC,-0.211
14,AGAAGGGA,-0.373
15,GGAGGTTA,-0.16
16,ACGGCCGC,0.159
17,GGAAGGGA,-0.336
18,CGGTCAGC,0.184
19,AAATTAGC,0.191
20,CACCTCCC,-0.195
21,GCCGAGCA,-0.0992
22,GTATATCA,0.139

# In a second layout: entries from further up
row	Sequence	PBM E-score
13	GACTTTAA	-0.0306
14	AGCCTGTG	-0.223
